{"sequences": {"note": "Sequences of proteins named here, by UniProt entry; tags and fusion partners are left off. A change or cut given only in a name is not applied to a line headed by its entry.", "UniProt P40460": "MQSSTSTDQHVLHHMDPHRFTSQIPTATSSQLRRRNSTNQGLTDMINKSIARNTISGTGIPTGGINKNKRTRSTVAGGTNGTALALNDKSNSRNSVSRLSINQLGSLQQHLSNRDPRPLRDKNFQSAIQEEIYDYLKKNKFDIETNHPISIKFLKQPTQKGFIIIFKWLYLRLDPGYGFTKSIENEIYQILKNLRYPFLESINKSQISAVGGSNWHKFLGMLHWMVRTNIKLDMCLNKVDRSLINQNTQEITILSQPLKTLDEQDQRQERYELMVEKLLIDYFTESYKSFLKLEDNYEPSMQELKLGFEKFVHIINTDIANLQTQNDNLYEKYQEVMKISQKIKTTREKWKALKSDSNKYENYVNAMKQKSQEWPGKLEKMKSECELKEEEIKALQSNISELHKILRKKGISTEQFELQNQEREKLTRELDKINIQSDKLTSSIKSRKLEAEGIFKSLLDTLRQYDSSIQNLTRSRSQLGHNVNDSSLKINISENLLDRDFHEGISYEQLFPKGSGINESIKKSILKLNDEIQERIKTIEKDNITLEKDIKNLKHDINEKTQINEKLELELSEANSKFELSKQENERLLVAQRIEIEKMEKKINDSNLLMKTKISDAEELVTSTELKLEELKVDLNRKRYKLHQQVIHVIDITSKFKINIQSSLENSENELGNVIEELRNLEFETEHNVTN"}, "source": "paper PMC12170873", "about": "“The Spc105/Kre28 complex promotes mitotic error correction by outer kinetochore recruitment of Ipl1/Sli15” (The EMBO Journal, 2025)", "biological_target": "Mtw1c/Ndc80c-Flag (MN subcomplexes) (S. cerevisiae) (UniProt P40460)", "assay": "pull-down; KMN or its subcomplexes from Sf9 cells immobilised on anti-Flag M2 beads; 100 µl of 2 µM Ipl1/Sli15 added to ~20 µl beads; 4 °C, 6 h; 25 mM HEPES pH 7.4, 200 mM NaCl, 1 mM MgCl2, 2.5% glycerol, 0.01% Tween-20; eluted with 3xFlag peptide; Coomassie and anti-His blot; also done with prolonged incubation times (Fig. EV3A); both purified", "note": "Results are given in words; binding and its absence hold for the method and conditions named. Sequences can lack the tags named with a protein."}
{"binder": "Ipl1/6xHis-Sli15 complex (wild type, untreated) (complex, S. cerevisiae, Ipl1 (Aurora B homologue), S. cerevisiae; Sli15 (INCENP homologue), S. cerevisiae; the full-length form was preferentially pulled down; also called Ipl1/Sli15; Ipl1/Sli15 complex; source: E. coli BL21, purified (HisTrap, SEC on Superdex 200)) chain 1: MQRNSLVNIKLNANSPSKKTTTRPNTSRINKPWRISHSPQQRNPNSKIPSPVREKLNRLPVNNKKFLDMESSKIPSPIRKATSSKMIHENKKLPKFKSLSLDDFELGKKLGKGKFGKVYCVRHRSTGYICALKVMEKEEIIKYNLQKQFRREVEIQTSLNHPNLTKSYGYFHDEKRVYLLMEYLVNGEMYKLLRLHGPFNDILASDYIYQIANALDYMHKKNIIHRDIKPENILIGFNNVIKLTDFGWSIINPPENRRKTVCGTIDYLSPEMVESREYDHTIDAWALGVLAFELLTGAPPFEEEMKDTTYKRIAALDIKMPSNISQDAQDLILKLLKYDPKDRMRLGDVKMHPWILRNKPFWENKRL chain 2: MDWAIKAARKKTQRKPGSTRSIIETLDDLNNLTTDAHSEINQRLYESSEWLRNNVYMNTLKYEDKKMEESLISPENTHNKMDVEFPKMKGEYELSNSQNDAAKDVTKTPRNGLHNDKSITPKSLRRKEVTEGMNRFSIHDTNKSPVEPLNSVKVDANESEKSSPWSPYKVEKVLRESSKTSESPINTKRFDNQTWAAKEEMENEPILQALKKAESVKVKPPPNSGIARSQRRSNMFVPLPNKDPLIIQHIPPTKSSGSIPKVRTVKESPIAFKKKSTINSPAIRAVENSDTAGSTKASSVFDRLSSIPTKSFENKISRGNVGHKYSSSSIDLTGSPMKKVSQKFKSINSTDTDMQEALRDIFSVKNKITKNNSPKGKNSRKSSIPRFDKTSLKLTTHKKLAIIAEQKKKSKHSSDVHKTGSRPHSISPTKISVDSSSPSKEVKNYYQSPVRGYLRPTKASISPNKNKNLTTSQTPHRLKIKEKTLRKLSPNIADISKPESRKSKNYRLTNLQLLPPAEAERDDLKKKFDKRLSGIMRSQQEHHRRKQEKQKRMSHLEQDLKKQTSFSNDYKDIRLKESLAPFDNHVRDTINKNTAFSTDNILATINTVDHREIIGNVTPKIASVNDSLPEINTDSEDEASVTLAAWAKSPYLQEQLIRQQDINPQTIFGPIPPLHTDEIFPNPRLNRLKPRQIVPKRS", "values": [{"measurement": "binding", "value": "no binding (tested: 2 µM)"}]}
